Assay results: PMC8514525
No constants are given. Whether binding was seen depends on the method and setting. Binding seen in cells or lysates may run through a third protein. Some entries that bind do so weakly or less than the wild type.

Chains of the proteins cited; added tags and fusions are not shown. Residues count along the entry.
UniProt P11021, residues 19-654: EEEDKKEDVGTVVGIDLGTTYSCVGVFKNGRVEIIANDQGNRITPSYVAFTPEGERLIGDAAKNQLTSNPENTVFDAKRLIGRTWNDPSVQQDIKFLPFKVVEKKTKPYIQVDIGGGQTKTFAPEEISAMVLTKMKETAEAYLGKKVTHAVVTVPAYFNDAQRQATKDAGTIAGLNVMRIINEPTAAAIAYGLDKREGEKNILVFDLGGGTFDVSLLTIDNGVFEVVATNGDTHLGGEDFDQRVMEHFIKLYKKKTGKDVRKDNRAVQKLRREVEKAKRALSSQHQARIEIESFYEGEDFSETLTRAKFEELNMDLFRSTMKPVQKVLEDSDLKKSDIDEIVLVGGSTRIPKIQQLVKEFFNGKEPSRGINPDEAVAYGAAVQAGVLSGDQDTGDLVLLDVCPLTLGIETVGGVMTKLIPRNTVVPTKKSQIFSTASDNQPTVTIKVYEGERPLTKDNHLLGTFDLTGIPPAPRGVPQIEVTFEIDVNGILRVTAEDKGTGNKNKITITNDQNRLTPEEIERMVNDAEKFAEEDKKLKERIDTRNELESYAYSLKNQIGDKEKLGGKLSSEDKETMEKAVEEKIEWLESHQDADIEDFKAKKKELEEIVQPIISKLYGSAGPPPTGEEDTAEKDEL

Assays:
[1] = target: T1, S100 calcium-binding protein 16 (S100A16) (human (endogenous in HK-2)) (UniProt Q96FQ6); assay: co-IP; lysates (NP40 lysis buffer) of wild-type or S100A16-overexpressing HK-2 cells, 1 mg protein incubated with anti-S100A16 or anti-GRP78 overnight at 4 °C, protein A beads 2-6 h, three washes in NP40 lysis buffer, blots with anti-S100A16, anti-GRP78, anti-IRE1α; cells with or without 10 µM BAPTA-AM
T1 sequence: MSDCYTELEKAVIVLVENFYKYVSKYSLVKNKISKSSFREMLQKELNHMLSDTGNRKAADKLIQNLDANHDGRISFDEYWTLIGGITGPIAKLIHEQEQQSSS

[2] = target: Glucose-regulated protein 78 kD (GRP78) (human (endogenous in HK-2)) (UniProt P11021); assay: as above

For “Glucose-regulated protein 78 kD (GRP78) (from UniProt P11021 19-654)”, the binding [1] was “binds”.

B1: S100 calcium-binding protein 16 (S100A16) (protein, UniProt Q96FQ6 1-103)
chain: MSDCYTELEKAVIVLVENFYKYVSKYSLVKNKISKSSFREMLQKELNHMLSDTGNRKAADKLIQNLDANHDGRISFDEYWTLIGGITGPIAKLIHEQEQQSSS
With B1 the binding [2] was “binds”.

B2: S100A16 overexpressed from lentivirus (Lenti-S100A16) in HK-2 cells (protein, UniProt Q96FQ6 1-103)
chain: MSDCYTELEKAVIVLVENFYKYVSKYSLVKNKISKSSFREMLQKELNHMLSDTGNRKAADKLIQNLDANHDGRISFDEYWTLIGGITGPIAKLIHEQEQQSSS
In the case of B2, the binding [2] is reported as “binds”.
